# Experimental data reported in the supplement of paper PMC8728848.
# The list shows a part of the results.
# Tests used:
# Test in all cases: glycan array binding signal (z-score within array); higher = stronger binding
# Conditions in all cases: glycan notation: IUPAC condensed, linker removed
# [1] = biological target: Neu5Ac(a2-3)Gal(b1-3)GlcNAc6S
# Summary of the method: (§1)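 Columns mapping to the same glycan were averaged after glycan names were converted to IUPAC-condensed notation. The data come from 3228 arrays in the Consortium for Functional Glycomics database, limited to those with an available protein sequence. Binding is reported as a within-array Z-score averaged across arrays of one protein sequence and across linkers.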
# [2] = biological target: Neu5Ac(a2-3)Gal(b1-3)[Fuc(a1-4)]GlcNAc
# Summary of the method: as §1
# [3] = biological target: Neu5Ac(a2-3)Gal(b1-3)[Fuc(a1-4)]GlcNAc(b1-3)Gal(b1-3)[Fuc(a1-4)]GlcNAc
# Summary of the method: as §1
# [4] = biological target: Neu5Ac(a2-3)Gal(b1-3)[Fuc(a1-4)]GlcNAc(b1-3)Gal(b1-4)[Fuc(a1-3)]GlcNAc
# Summary of the method: as §1
# [5] = biological target: Neu5Ac(a2-3)Gal(b1-3)[GlcNAc(b1-6)]GalNAc
# Summary of the method: as §1
# [6] = biological target: Neu5Ac(a2-3)Gal(b1-3)[Neu5Ac(a2-6)]GalNAc
# Summary of the method: as §1
# [7] = biological target: Neu5Ac(a2-3)Gal(b1-3)[Neu5Ac(a2-6)]GlcNAc(b1-3)[Fuc(a1-3)[Gal(b1-4)]GlcNAc(b1-6)]Gal(b1-4)Glc
# Summary of the method: as §1
# [8] = biological target: Neu5Ac(a2-3)Gal(b1-3)]Neu5Ac(a2-3)Gal(b1-4)]GlcNAc
# Summary of the method: as §1
# Neu5Ac(a2-3)Gal(b1-4)Glc = biological target: Neu5Ac(a2-3)Gal(b1-4)Glc
# Summary of the method: as §1
# [9] = biological target: Neu5Ac(a2-3)Gal(b1-4)GlcNAc
# Summary of the method: as §1
# [10] = biological target: Neu5Ac(a2-3)Gal(b1-4)GlcNAc(b1-2)Man
# Summary of the method: as §1
# [11] = biological target: Neu5Ac(a2-3)Gal(b1-4)GlcNAc(b1-2)Man(a1-3)[GlcNAc(b1-4)][Neu5Ac(a2-3)Gal(b1-4)GlcNAc(b1-2)Man(a1-6)]Man(b1-4)GlcNAc(b1-4)GlcNAc
# Summary of the method: as §1
# [12] = biological target: Neu5Ac(a2-3)Gal(b1-4)GlcNAc(b1-2)Man(a1-3)[Neu5Ac(a2-3)Gal(b1-4)GlcNAc(b1-2)Man(a1-6)]Man(b1-4)GlcNAc(b1-4)GlcNAc
# Summary of the method: as §1
# [13] = biological target: Neu5Ac(a2-3)Gal(b1-4)GlcNAc(b1-2)Man(a1-3)[Neu5Ac(a2-3)Gal(b1-4)GlcNAc(b1-2)Man(a1-6)]Man(b1-4)GlcNAc(b1-4)[Fuc(a1-6)]GlcNAc
# Summary of the method: as §1
# [14] = biological target: Neu5Ac(a2-3)Gal(b1-4)GlcNAc(b1-2)Man(a1-3)[Neu5Ac(a2-6)Gal(b1-4)GlcNAc(b1-2)Man(a1-6)]Man(b1-4)GlcNAc(b1-4)GlcNAc
# Summary of the method: as §1
# [15] = biological target: Neu5Ac(a2-3)Gal(b1-4)GlcNAc(b1-2)[Neu5Ac(a2-3)Gal(b1-4)GlcNAc(b1-4)]Man(a1-3)[GlcNAc(b1-4)][Neu5Ac(a2-3)Gal(b1-4)GlcNAc(b1-2)[Neu5Ac(a2-3)Gal(b1-4)GlcNAc(b1-6)]Man(a1-6)]Man(b1-4)GlcNAc(b1-4)GlcNAc
# Summary of the method: as §1
# [16] = biological target: Neu5Ac(a2-3)Gal(b1-4)GlcNAc(b1-2)[Neu5Ac(a2-3)Gal(b1-4)GlcNAc(b1-4)]Man(a1-3)[GlcNAc(b1-4)][Neu5Ac(a2-3)Gal(b1-4)GlcNAc(b1-4)Man(a1-6)]Man(b1-4)GlcNAc(b1-4)GlcNAc
# Summary of the method: as §1
# [17] = biological target: Neu5Ac(a2-3)Gal(b1-4)GlcNAc(b1-2)[Neu5Ac(a2-3)Gal(b1-4)GlcNAc(b1-6)]Man(a1-6)[Neu5Ac(a2-3)Gal(b1-4)GlcNAc(b1-2)Man(a1-3)][GlcNAc(b1-4)]Man(b1-4)GlcNAc(b1-4)GlcNAc
# Summary of the method: as §1
# [18] = biological target: Neu5Ac(a2-3)Gal(b1-4)GlcNAc(b1-3)Gal
# Summary of the method: as §1
# [19] = biological target: Neu5Ac(a2-3)Gal(b1-4)GlcNAc(b1-3)Gal(b1-3)GlcNAc
# Summary of the method: as §1
# [20] = biological target: Neu5Ac(a2-3)Gal(b1-4)GlcNAc(b1-3)Gal(b1-4)GlcNAc
# Summary of the method: as §1
# [21] = biological target: Neu5Ac(a2-3)Gal(b1-4)GlcNAc(b1-3)Gal(b1-4)GlcNAc(b1-2)Man(a1-3)[Neu5Ac(a2-3)Gal(b1-4)GlcNAc(b1-3)Gal(b1-4)GlcNAc(b1-2)Man(a1-6)]Man(b1-4)GlcNAc(b1-4)GlcNAc
# Summary of the method: as §1
# [22] = biological target: Neu5Ac(a2-3)Gal(b1-4)GlcNAc(b1-3)Gal(b1-4)GlcNAc(b1-3)Gal(b1-4)GlcNAc
# Summary of the method: as §1
# [23] = biological target: Neu5Ac(a2-3)Gal(b1-4)GlcNAc(b1-3)Gal(b1-4)GlcNAc(b1-3)Gal(b1-4)GlcNAc(b1-2)Man(a1-3)[Neu5Ac(a2-3)Gal(b1-4)GlcNAc(b1-3)Gal(b1-4)GlcNAc(b1-3)Gal(b1-4)GlcNAc(b1-2)Man(a1-6)]GalNAc
# Summary of the method: as §1
# [24] = biological target: Neu5Ac(a2-3)Gal(b1-4)GlcNAc(b1-3)Gal(b1-4)GlcNAc(b1-3)GalNAc
# Summary of the method: as §1
# [25] = biological target: Neu5Ac(a2-3)Gal(b1-4)GlcNAc(b1-3)Gal(b1-4)GlcNAc(b1-3)[Neu5Ac(a2-3)Gal(b1-4)GlcNAc(b1-3)Gal(b1-4)GlcNAc(b1-6)]GalNAc
# Summary of the method: as §1
# [26] = biological target: Neu5Ac(a2-3)Gal(b1-4)GlcNAc(b1-3)Gal(b1-4)GlcNAc(b1-6)[Gal(b1-3)]GalNAc
# Summary of the method: as §1
# [27] = biological target: Neu5Ac(a2-3)Gal(b1-4)GlcNAc(b1-3)Gal(b1-4)[Fuc(a1-3)]GlcNAc
# Summary of the method: as §1
# [28] = biological target: Neu5Ac(a2-3)Gal(b1-4)GlcNAc(b1-3)GalNAc
# Summary of the method: as §1
# [29] = biological target: Neu5Ac(a2-3)Gal(b1-4)GlcNAc(b1-3)[Neu5Ac(a2-3)Gal(b1-4)GlcNAc(b1-6)]GalNAc
# Summary of the method: as §1
binder,measurement,setting,value
LlpB (Pseudomonas fluorescens) (protein) MGSSHHHHHHSSGLVPRGSHMASSGFRIILFNSANNGTAILPPRNCLVAGQYLESPSKRYKLILEADGNLRLYDNGVPIWVADSSVPYTYVDNRPNTNLVTCFYMQGSAFLVDRVGSRTWATIGDWIDGAADRAYLQVQDDGNVVVVDGVPRWARFGFTPAALPNRGVFYPDHGTGPLPSFPVWSWTF,glycan array binding signal (z-score),[1],0.288
same,glycan array binding signal (z-score),[2],2.3
same,glycan array binding signal (z-score),[3],-0.535
same,glycan array binding signal (z-score),[4],2.31
same,glycan array binding signal (z-score),[5],-0.378
same,glycan array binding signal (z-score),[6],-0.428
same,glycan array binding signal (z-score),[7],-0.049
same,glycan array binding signal (z-score),[8],0.125
same,glycan array binding signal (z-score),Neu5Ac(a2-3)Gal(b1-4)Glc,2.98
same,glycan array binding signal (z-score),[9],-1.1
same,glycan array binding signal (z-score),[10],1.15
same,glycan array binding signal (z-score),[11],-1.06
same,glycan array binding signal (z-score),[12],1.26
same,glycan array binding signal (z-score),[13],-0.332
same,glycan array binding signal (z-score),[14],-0.622
same,glycan array binding signal (z-score),[15],1.21
same,glycan array binding signal (z-score),[16],0.344
same,glycan array binding signal (z-score),[17],-0.505
same,glycan array binding signal (z-score),[18],-0.928
same,glycan array binding signal (z-score),[19],-0.735
same,glycan array binding signal (z-score),[20],0.106
same,glycan array binding signal (z-score),[21],0.657
same,glycan array binding signal (z-score),[22],-1.21
same,glycan array binding signal (z-score),[23],0.512
same,glycan array binding signal (z-score),[24],-0.006
same,glycan array binding signal (z-score),[25],-0.12
same,glycan array binding signal (z-score),[26],-0.141
same,glycan array binding signal (z-score),[27],-1.33
same,glycan array binding signal (z-score),[28],-0.794
same,glycan array binding signal (z-score),[29],-0.411

# Rewritten with bars between the fields: entries from further up
binder | measurement | setting | value
LlpB (Pseudomonas fluorescens) (protein) MGSSHHHHHHSSGLVPRGSHMASSGFRIILFNSANNGTAILPPRNCLVAGQYLESPSKRYKLILEADGNLRLYDNGVPIWVADSSVPYTYVDNRPNTNLVTCFYMQGSAFLVDRVGSRTWATIGDWIDGAADRAYLQVQDDGNVVVVDGVPRWARFGFTPAALPNRGVFYPDHGTGPLPSFPVWSWTF | glycan array binding signal (z-score) | [28] | -0.794
same | glycan array binding signal (z-score) | [29] | -0.411
